Consider eleven substances from patent publication US8258259B2 (Starpharma Pty Limited, priority 2005, dated 2012).

This data set is described as follows: general procedure: solution-phase peptide synthesis; PyBOP/DIPEA; PNP active esters (PNPO-Lys) with TEA. Particulars: late stage modification step, sodium salt (final), TFA salt (amine intermediates).

In the case of “BHALys[Lys]2[GlyLys]4[Lys]8[α,α-NH2.TFA]4[α,ε-NH2.TFA]4[ε,α-COC5H12]4[ε,ε-COC5H12]4”, the step yield (two steps) turned out to be 80% for two steps.

Turning to “BHALys[GlyLys]2[Lys]4[α,α-NH2.TFA]2[α,ε-NH2.TFA]2[ε,α-COC5H12]2[ε,ε-COC5H12]2”, the step yield (two steps) was determined as 47% for two steps.

Turning to “BHALys[Lys]2[α,ε-Lys][CBz]2[Lys]3 [COCH2O-3,6-Naph(SO3Na)2]6”, the step yield stood at 7%. With “BHALys[Lys]2[α,ε-Lys][CBz]2[Lys]3 [NH2.TFA]6”, the step yield is 99%. “BHALys[Lys]2[GlyLys]4[Lys]8[α,α-COCH2O-3,6-Naph(SO3Na)2]4[α,ε-COCH2O-3,6-Naph(SO3Na)2]4[ε,α-COC5H12]4[ε,ε-COC5H12]4”: the step yield was found to be 18%. The same measure, in the same setting: the same measure for “BHALys[Lys]2[GlyLys]4[Lys]8[α,α-Boc]4[α,ε-Boc]4[ε,α-COCH2O-3,6-Naph(SO3Na)2]4 [ε,ε-COCH2O-3,6-Naph(SO3Na)2]4”: 38%; for “BHALys[GlyLys]2[Lys]4[NH2.TFA]6[ε,ε-CBz]2”: 92%; for “BHALys[GlyLys]2[Lys]4[α,α-Boc]2[ε,α-COCH2O-3,6-Naph(SO3Na)2]2[ε,ε-COCH2O-3,6-Naph(SO3Na)2]2”: 27%.

With “BHALys[GlyLys]2[Lys]4[α,α-COCH2O-3,6-Naph(SO3Na)2]2[α,ε-COCH2O-3,6-Naph(SO3Na)2]2[ε,α-COC5H12]2[ε,ε-COC5H12]2”, the step yield came to 34%. For the substance “BHALys[Lys]2[α,ε-Lys][COCH2O-3,6-Naph(SO3Na)2]2[Lys]3 [Boc]6”, the step yield is 53%. The same measure, in the same setting: as for “BHALys[GlyLys]2[Lys]4[COCH2O-3,6-Naph(SO3Na)2]6 [ε,ε-CBz]2”, the figure is 42%.
